Holding throughout (experiment): activity assay
Series [1] concerns the target T1, TGK (TgoT Y409G E664K) (Thermococcus gorgonarius) (UniProt P56689).
T1 sequence (limits assumed): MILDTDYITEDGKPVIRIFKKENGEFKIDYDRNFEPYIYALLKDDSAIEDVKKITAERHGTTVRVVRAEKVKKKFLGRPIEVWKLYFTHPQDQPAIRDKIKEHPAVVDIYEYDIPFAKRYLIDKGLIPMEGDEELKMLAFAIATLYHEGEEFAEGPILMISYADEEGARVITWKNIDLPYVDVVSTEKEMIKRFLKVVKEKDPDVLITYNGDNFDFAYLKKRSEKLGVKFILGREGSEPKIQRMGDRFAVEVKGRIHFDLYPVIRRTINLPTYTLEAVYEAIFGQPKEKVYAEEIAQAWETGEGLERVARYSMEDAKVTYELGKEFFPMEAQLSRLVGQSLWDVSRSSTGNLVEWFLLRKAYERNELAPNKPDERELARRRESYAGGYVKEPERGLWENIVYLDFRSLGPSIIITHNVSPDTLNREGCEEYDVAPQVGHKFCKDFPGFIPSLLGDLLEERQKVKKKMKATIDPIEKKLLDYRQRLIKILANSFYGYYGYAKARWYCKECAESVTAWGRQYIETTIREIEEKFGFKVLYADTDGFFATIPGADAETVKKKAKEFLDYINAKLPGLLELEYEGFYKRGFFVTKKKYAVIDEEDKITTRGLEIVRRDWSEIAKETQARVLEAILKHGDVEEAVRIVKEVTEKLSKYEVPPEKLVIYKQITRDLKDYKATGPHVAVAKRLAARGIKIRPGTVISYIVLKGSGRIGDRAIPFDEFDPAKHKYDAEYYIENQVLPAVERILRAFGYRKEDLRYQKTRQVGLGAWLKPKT
Particulars: primer strand is RNA; supF tRNA synthesis, 65 C; purified recombinant protein; label: 5'FITC primer; DNA:RNA hybrid.

In series [2] the target is T2, TNQ (TgoT Y409N E664Q) (Thermococcus gorgonarius) (UniProt P56689).
T2 sequence (limits assumed): T1 sequence (limits assumed) with G409N, K664Q
Particulars: primer strand is RNA; supF tRNA synthesis, 65 C; purified recombinant protein; label: 5'FITC primer; DNA:RNA hybrid.

In series [3] the target is T3, D4N (D4 Y409N, D4N3) (Thermococcus gorgonarius) (UniProt P56689).
T3 sequence (limits assumed): T1 sequence (limits assumed) with G409N, P657T, E658Q, K659H, Y663H, K664Q, D669A, K671N, T676I
The following applies: primer strand is RNA; 65-nt supF tRNA synthesis, 65 C; purified recombinant protein; label: 5'FITC primer; DNA:RNA hybrid.

Residue numbers refer to the chain shown, from its start. For at least one entry, the source does not settle the construct or the ends of the probe. Protein sequences can lack the tags named with them.

As to “CAGGAAACAGCTATGACAAATGGTGGTGGGG / GGTGGGGTTCCCGAGCGGCCAAAGGGAGCAGACTCTAAATCTGCCGTCATCGACTTCGAAGGTTCGAATCCTTCCCCCACCACCA [YtRHNA2HNA2 RNA primer / tRNAtemp1]”, in series [1], the activity on this sequence (s to full length) was less than 30. Also, the activity on this sequence (min to full length) was less than 10 in series [2] and 20 in series [3].

These data come from US20180237756.
